{"source": "patent US4301151", "about": "(dated 1981)", "assay": "general procedure: hybrid (solid and solution phase) peptide synthesis; BOC-Tyr hydroxysuccinimide ester", "data": [{"substance": "H-Tyr-2-[R-(2-oxo-1-azepine)acetic acid]-Phe-Met-NH2", "values": [{"measurement": "step yield", "setting": "late stage modification step, cyclic", "value": 58, "unit": "%"}]}, {"substance": "H-Tyr-2-[R-(3-amino-2-oxo-1-pyrrolidine)acetic acid]-Phe-Met-NH2 hydrochloride", "values": [{"measurement": "step yield", "setting": "late stage modification step, hydrochloride, cyclic", "value": 82, "unit": "%"}]}, {"substance": "BOC-Tyr-2-[R-(3-amino-2-oxo-1-azepine)acetic acid]-Phe-Met-NH2", "values": [{"measurement": "step yield", "setting": "coupling step", "value": 55, "unit": "%"}]}, {"substance": "BOC-Tyr-2-[R-(3-amino-2-oxo-1-pyrrolidine)acetic acid]-Phe-Met-NH2", "values": [{"measurement": "step yield", "setting": "coupling step", "value": 81, "unit": "%"}]}]}
